Data taken from publication PMC5105952.
Results are given in words; binding and its absence hold for the method and conditions named. Binding seen in cells or lysates may run through a third protein. These calls come from enrichment with a bait or labelling near it, and not all partners need be listed.

By UniProt entry, the sequences of proteins in these tests, tags left out.
UniProt E1JH25: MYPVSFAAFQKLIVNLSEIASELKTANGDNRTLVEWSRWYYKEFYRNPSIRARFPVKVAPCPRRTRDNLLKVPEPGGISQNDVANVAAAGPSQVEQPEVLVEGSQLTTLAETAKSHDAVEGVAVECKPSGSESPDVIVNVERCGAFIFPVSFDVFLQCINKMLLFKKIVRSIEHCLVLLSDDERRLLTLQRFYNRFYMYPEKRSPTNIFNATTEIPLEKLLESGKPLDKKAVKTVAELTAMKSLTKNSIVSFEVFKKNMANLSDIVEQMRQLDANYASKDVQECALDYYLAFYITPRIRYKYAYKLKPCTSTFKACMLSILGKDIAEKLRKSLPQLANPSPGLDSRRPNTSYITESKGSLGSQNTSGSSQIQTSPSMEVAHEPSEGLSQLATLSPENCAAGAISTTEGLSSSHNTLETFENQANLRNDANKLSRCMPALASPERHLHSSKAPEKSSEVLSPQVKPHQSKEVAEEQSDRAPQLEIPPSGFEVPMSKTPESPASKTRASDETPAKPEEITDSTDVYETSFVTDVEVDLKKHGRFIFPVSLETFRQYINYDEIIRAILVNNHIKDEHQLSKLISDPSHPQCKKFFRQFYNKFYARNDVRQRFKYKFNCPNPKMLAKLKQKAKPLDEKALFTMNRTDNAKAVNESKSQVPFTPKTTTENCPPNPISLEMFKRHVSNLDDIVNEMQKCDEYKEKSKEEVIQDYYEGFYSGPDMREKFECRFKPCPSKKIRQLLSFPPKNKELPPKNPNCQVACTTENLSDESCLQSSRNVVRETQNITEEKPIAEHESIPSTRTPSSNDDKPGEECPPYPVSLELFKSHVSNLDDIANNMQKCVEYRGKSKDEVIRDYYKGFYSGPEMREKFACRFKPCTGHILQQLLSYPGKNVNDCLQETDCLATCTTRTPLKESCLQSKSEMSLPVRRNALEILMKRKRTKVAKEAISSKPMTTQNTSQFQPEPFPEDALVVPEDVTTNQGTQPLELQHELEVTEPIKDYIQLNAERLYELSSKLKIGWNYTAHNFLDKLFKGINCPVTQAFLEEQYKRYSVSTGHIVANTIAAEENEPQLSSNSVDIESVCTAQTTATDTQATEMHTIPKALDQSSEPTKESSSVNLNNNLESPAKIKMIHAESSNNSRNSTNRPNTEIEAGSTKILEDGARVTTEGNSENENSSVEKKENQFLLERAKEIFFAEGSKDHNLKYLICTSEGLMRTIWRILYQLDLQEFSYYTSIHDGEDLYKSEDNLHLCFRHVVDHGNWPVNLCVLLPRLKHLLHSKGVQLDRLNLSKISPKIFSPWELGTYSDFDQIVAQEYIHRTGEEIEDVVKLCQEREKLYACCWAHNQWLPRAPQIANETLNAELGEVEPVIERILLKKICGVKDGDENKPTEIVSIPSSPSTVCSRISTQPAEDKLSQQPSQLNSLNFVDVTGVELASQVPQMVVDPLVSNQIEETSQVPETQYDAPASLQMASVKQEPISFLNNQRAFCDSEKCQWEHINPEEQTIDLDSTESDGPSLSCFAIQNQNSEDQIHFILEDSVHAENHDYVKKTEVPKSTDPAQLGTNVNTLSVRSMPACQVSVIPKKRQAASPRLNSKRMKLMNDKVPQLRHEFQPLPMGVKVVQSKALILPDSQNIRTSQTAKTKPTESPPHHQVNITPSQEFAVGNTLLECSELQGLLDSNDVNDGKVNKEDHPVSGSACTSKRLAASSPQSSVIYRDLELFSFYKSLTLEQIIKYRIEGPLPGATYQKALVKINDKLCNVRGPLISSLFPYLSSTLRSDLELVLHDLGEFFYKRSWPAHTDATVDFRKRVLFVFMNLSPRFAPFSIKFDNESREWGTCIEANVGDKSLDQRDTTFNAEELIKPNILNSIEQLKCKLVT

Molecular target: T1, HOAP (Drosophila melanogaster) (UniProt Q95RV2)
T1 sequence: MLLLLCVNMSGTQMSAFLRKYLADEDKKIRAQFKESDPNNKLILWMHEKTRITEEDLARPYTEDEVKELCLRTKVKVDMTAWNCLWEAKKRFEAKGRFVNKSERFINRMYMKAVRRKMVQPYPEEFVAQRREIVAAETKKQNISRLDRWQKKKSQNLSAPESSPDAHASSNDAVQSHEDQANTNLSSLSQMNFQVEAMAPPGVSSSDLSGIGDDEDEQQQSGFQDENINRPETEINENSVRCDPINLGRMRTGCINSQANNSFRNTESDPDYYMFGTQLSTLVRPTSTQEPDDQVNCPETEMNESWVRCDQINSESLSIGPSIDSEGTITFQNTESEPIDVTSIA
Experiment: affinity purification with mass spectrometry; biochemical purification of HOAP-interacting proteins (the same purification as in ref. 6); peptides identified

binding: binds
Substance: Tea (peptides encoded by the CG30007 locus, found in the HOAP purification) (from UniProt E1JH25 1-1876)
